Assay: peptide synthesis
Settings: conjugation step, Urea-PAGE

Substance | final purity (method not given) [%]
CTACCTGC–linker 1–[GRLRL]2–linker 2–AAGCACTTTG | 95.6
TCAACATC–linker 1–[GRLRL]2–linker 2–GATAAGCTA | 96.5
TATCTGC–linker 1–[GRLRL]2–linker 2–ATGCACCTTA | 95.6
ACCCCTAT–linker 1–[GRLRL]2–linker 2–TTAGCATTAA | 95.2
